Assay results published in paper PMC7867230.
No constants are given. Whether binding was seen depends on the method and setting. Some entries that bind do so weakly or less than the wild type.

The chains behind the UniProt entries cited, without tags or fusion partners. Residues count along the entry.
UniProt P00750, residues 36-562: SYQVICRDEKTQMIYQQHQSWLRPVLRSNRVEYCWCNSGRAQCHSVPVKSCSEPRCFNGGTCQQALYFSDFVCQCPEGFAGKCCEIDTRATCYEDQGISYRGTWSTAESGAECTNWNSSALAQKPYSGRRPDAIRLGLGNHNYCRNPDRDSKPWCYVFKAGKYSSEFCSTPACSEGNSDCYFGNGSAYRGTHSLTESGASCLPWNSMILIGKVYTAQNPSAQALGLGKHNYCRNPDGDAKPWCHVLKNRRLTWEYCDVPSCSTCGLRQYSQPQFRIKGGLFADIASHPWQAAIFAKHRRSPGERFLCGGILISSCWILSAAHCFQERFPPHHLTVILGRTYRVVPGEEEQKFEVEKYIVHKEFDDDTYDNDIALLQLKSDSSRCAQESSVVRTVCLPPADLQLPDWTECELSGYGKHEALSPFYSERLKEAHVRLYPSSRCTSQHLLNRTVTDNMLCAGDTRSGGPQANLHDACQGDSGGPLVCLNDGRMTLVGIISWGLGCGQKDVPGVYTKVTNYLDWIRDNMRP
UniProt P05121, residues 24-402: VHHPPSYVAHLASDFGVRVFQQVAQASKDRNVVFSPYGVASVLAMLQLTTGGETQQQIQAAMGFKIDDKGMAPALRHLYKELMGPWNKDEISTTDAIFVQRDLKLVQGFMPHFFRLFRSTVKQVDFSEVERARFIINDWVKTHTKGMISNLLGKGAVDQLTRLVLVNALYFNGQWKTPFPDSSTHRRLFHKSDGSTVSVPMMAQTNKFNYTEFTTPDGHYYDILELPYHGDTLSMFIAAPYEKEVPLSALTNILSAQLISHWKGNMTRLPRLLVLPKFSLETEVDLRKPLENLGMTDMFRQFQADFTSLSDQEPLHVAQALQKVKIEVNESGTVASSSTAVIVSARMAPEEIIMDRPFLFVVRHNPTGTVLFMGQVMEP

Target: tissue-type plasminogen activator (tPA) (UniProt P00750)
Test: SDS-PAGE of the SDS-stable covalent serpin/protease complex; 5 uL of 4.6 uM wild type PAI-1 with 5 uL buffer or compound (PBS pH 7.4, 1% DMSO) 10 min at 37 °C, then 10 uL of 6.6 uM tPA, 30 min at 37 °C; NuPAGE 4-12% Bis-Tris gel, Coomassie, densitometry; row is for the sample without …; both purified

For “wild type PAI-1 (plasminogen activator inhibitor-1) (from UniProt P05121 24-402)”, the binding was “binds”.
